PubChem BioAssay AID652243, Drosophila RNAi Screening Center | 2013
The screen tested about 24,000 reagents; below is an unselected part of those that have a named target and a result. Of all reagents, 246 (1%) are marked active. 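Plates not normalised; calls are printed but the firefly/Renilla ratio behind them is not deposited; fold cut for lowering reported inconsistently.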 Raw values are not corrected between plates. Reagent sequences are not shown. The record does not give: the amount of reagent.

- Purpose: 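Fly regulators of androgen-dependent reporter output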 (primary screen)
- System: Drosophila S2R+ cells
- Reagent: long dsRNA against Drosophila genes
- Duration: 72 h (48 h, then 24 h hormone)
- Challenge: synthetic androgen R1881 at 10 nM for 24 h
- Detection: 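Firefly light from an androgen-responsive reporter and Renilla control light per well, raw and unnormalised, for each of two replicates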
- Reading the numbers: firefly reporter light: higher = more light from androgen-responsive reporter; Renilla control light: higher = more constitutive control signal (cell number, transfection)
- Call rule: 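Hit when the log firefly-to-Renilla ratio dropped or increased by a fixed fold versus the mean of GFP or LacZ controls across duplicate plates; lowering cut given as 1.5 and as 3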
- Calls: active = hit: reporter lowered or raised; inactive = no hit

no.	predicted target	DRSC id	firefly reporter light, replicate 1	firefly reporter light, replicate 2	Renilla control light, replicate 1	Renilla control light, replicate 2	activity call
1	Ocho	DRSC11239	2.74e5	2.50e5	2.32e6	2.16e6	inactive
2	Ocho	DRSC28920	3.69e5	3.77e5	7.39e5	9.87e5	inactive
3	rho-5 (rhomboid-5)	DRSC02847	6.15e5	8.16e5	1.53e6	1.87e6	inactive
4	rho-5 (rhomboid-5)	DRSC26239	3.74e5	3.17e5	5.76e5	5.57e5	inactive
5	CG3091	DRSC18274	3.48e5	2.84e5	2.66e6	2.66e6	inactive
6	CG32855	DRSC13131	64218	89896	85184	1.61e5	inactive
7	Spt6	DRSC18836	46381	39802	4.35e5	2.73e5	inactive
8	CG43315	DRSC06296	2.08e5	2.65e5	2.06e6	2.04e6	inactive
9	CG11269	DRSC04094	2.52e5	2.46e5	1.93e6	1.71e6	inactive
10	Tsp42Ed (Tetraspanin 42Ed)	DRSC05940	3.92e5	3.69e5	1.70e6	1.67e6	inactive
11	CG30047	DRSC05340	76080	56583	2.22e5	3.00e5	inactive
12	wuc (Wake-up-call)	DRSC06152	1.66e5	1.52e5	9.49e5	1.15e6	inactive
13	Sgf29 (SAGA-associated factor 29kDa)	DRSC04076	8.66e5	8.27e5	2.53e6	2.24e6	inactive
14	CG15107	DRSC23406	6.96e5	8.19e5	7.86e5	6.34e5	inactive
15	CG33137	DRSC22131	1.30e6	1.19e6	2.43e6	2.22e6	inactive
16	Lint-O (L(3)mbt interactor in ovarian somatic cells)	DRSC18468	1.19e5	1.66e5	3.43e6	3.23e6	inactive
17	Lint-O (L(3)mbt interactor in ovarian somatic cells)	DRSC23789	6.85e5	5.08e5	6.06e5	5.55e5	inactive
18	CG4646	DRSC06876	2.35e5	1.15e5	1.63e6	1.09e6	inactive
19	CG6678	DRSC16092	1.01e5	1.22e5	6.81e5	8.56e5	inactive
20	CG6678	DRSC27398	5.42e5	4.06e5	6.79e5	8.02e5	inactive
21	Phax (Phosphorylated adaptor for RNA export)	DRSC07066	3.92e5	3.04e5	2.38e6	2.19e6	inactive
22	lmd (lame duck)	DRSC15618	54824	59960	3.83e5	4.87e5	inactive
23	lmd (lame duck)	DRSC29194	5.28e5	4.08e5	1.01e6	9.86e5	inactive
24	CG42808	DRSC06370	7.14e5	8.05e5	2.44e6	2.77e6	inactive

Copied from the list:
Ocho [DRSC28920], activity call: inactive
For “firefly reporter light, replicate 1”, Ocho [DRSC11239] is entered as 2.74e5
